Assay results: the supplement of paper PMC4604168 (melanoma cell lines)
This is one part of the list. Single values are uncertain, as repeats are few or missing.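 Cells were imaged in 1,536-well plates, and nuclei stained with an antibody against cleaved PARP were counted against all DNA-stained nuclei to give the apoptosis fraction. Screening doses were chosen to leave most cells alive, and resting and induced cleaved-PARP levels differ strongly between cell lines.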

test system: WM1745; test: cleaved PARP positive nuclei fraction relative to DMSO control; melanoma cells; higher = more apoptosis; conditions: library dose: low library concentration; 72 h

| SMILES | cleaved PARP positive nuclei fraction [%] |
| --- | --- |
| C[C@@H](Oc1cc(-c2cnn(C3CCNCC3)c2)cnc1N)c1c(Cl)ccc(F)c1Cl [Crizotinib] + CCN(CC)CCCCNc1ncc2cc(-c3cc(OC)cc(OC)c3)c(NC(=O)NC(C)(C)C)nc2n1 [PD173074] (first compound 0.2 µM, partner dose 0.1 µM) | 109 |
| Nc1ncn([C@H]2C[C@H](O)[C@@H](CO)O2)c(=O)n1 [decitabine] + O=c1cc(-c2cccc3c2Sc2ccccc2S3)oc(N2CCOCC2)c1 [KU55933] (first compound 0.1 µM, partner dose 1 µM) | 79.1 |
| O=C(O)c1ccc2c(c1)nc(Nc1cccc(Cl)c1)c1ccncc12 + O=C(O)c1ccc(-c2c[nH]c3ncc(-c4ccccc4)cc23)cc1C1CCCC1 [GSK650394] (first compound 0.4 µM, partner dose 0.16 µM) | 104 |
| Cc1cc(Nc2cc(N3CCN(C)CC3)nc(/C=C/c3ccccc3)n2)n[nH]1 + C=CCn1c(=O)c2cnc(Nc3ccc(N4CCN(C)CC4)cc3)nc2n1-c1cccc(C(C)(C)O)n1 [MK1775] (first compound 0.04 µM, partner dose 0.02 µM) | 125 |
| Nc1ccn([C@@H]2O[C@H](CO)[C@@H](O)C2(F)F)c(=O)n1 [gemcitabine] + O=C(Nc1cccc(Cl)c1)Nc1ncc(CCNc2ncnc3ccsc23)s1 [SNS314] (first compound 0.0004 µM, partner dose 0.0008 µM) | 170 |
| C[C@@H](Oc1cc(-c2cnn(C3CCNCC3)c2)cnc1N)c1c(Cl)ccc(F)c1Cl [Crizotinib] + CO[C@@H]1[C@H](N(C)C(=O)c2ccccc2)C[C@H]2O[C@]1(C)n1c3ccccc3c3c4c(c5c6ccccc6n2c5c31)C(=O)NC4 [Midostaurin] (first compound 0.2 µM, partner dose 0.08 µM) | 111 |
| CC(C)C[C@H](NC(=O)[C@H](Cc1ccccc1)NC(=O)c1cnccn1)B(O)O [Bortezomib] + COc1ccc2c(c1)CCC1C2CCC2(C)C(NCCCCCCN3C(=O)C=CC3=O)CCC12 [U73122] (first compound 0.001 µM, partner dose 0.4 µM) | 144 |
| Nc1ccn([C@@H]2O[C@H](CO)[C@@H](O)C2(F)F)c(=O)n1 [gemcitabine] + OCCn1cc(-c2cnc3nnn(Cc4ccc5ncccc5c4)c3n2)cn1 [PF04217903] (first compound 0.0004 µM, partner dose 1 µM) | 173 |
| CNC(=O)c1cc(Oc2ccc(NC(=O)Nc3ccc(Cl)c(C(F)(F)F)c3)cc2)ccn1 [sorafenib] + CO[C@@H]1[C@H](N(C)C(=O)c2ccccc2)C[C@H]2O[C@]1(C)n1c3ccccc3c3c4c(c5c6ccccc6n2c5c31)C(=O)NC4 [Midostaurin] (first compound 0.4 µM, partner dose 0.08 µM) | 128 |
| O=C(O)[C@@H]1[O][Sb](=[O])([O][Sb]2(=[O])[O][C@H]([C@H](O)CO)[C@H](O)[C@H](C(=O)O)[O]2)[O][C@H]([C@H](O)CO)[C@@H]1O (some centres undefined) [stibogluconate] + Cc1ccc(NC(=O)c2cccc(N(C)C)c2)cc1NC(=O)c1ccc(O)cc1 [ZM336372] (first compound 2 µM, partner dose 2 µM) | 100 |
| CN1CCN(c2ccc3nc(-c4c(N)c5c(F)cccc5[nH]c4=O)[nH]c3c2)CC1 [Dovitinib] + COc1cc2c(Oc3ccc4[nH]c(C)cc4c3F)ncnc2cc1OCCCN1CCCC1 [cediranib] (first compound 0.1 µM, partner dose 0.4 µM) | 119 |
| CC(C)C[C@H](NC(=O)[C@H](Cc1ccccc1)NC(=O)c1cnccn1)B(O)O [Bortezomib] + CC(C)CCN1c2nc(Nc3cc(F)c(O)c(F)c3)ncc2N(C)C(=O)C1C [BID1870] (first compound 0.001 µM, partner dose 0.2 µM) | 134 |
| O=C(O)c1ccc2c(c1)nc(Nc1cccc(Cl)c1)c1ccncc12 + NCC(=O)Nc1ccc(-n2nc(C(F)(F)F)cc2-c2ccc3c(ccc4ccccc43)c2)cc1 [OSU03012] (first compound 0.4 µM, partner dose 1 µM) | 95.4 |
| Nc1ncn([C@H]2C[C@H](O)[C@@H](CO)O2)c(=O)n1 [decitabine] + Cn1cc(/C=C2\C(=O)Nc3cccnc32)c2ccccc21 [GW441756] (first compound 0.1 µM, partner dose 0.4 µM) | 98.4 |

2 entries drawn at random from those above:

| SMILES | cleaved PARP positive nuclei fraction [%] |
| --- | --- |
| Nc1ccn([C@@H]2O[C@H](CO)[C@@H](O)C2(F)F)c(=O)n1 [gemcitabine] + O=C(Nc1cccc(Cl)c1)Nc1ncc(CCNc2ncnc3ccsc23)s1 [SNS314] (first compound 0.0004 µM, partner dose 0.0008 µM) | 170 |
| C[C@@H](Oc1cc(-c2cnn(C3CCNCC3)c2)cnc1N)c1c(Cl)ccc(F)c1Cl [Crizotinib] + CCN(CC)CCCCNc1ncc2cc(-c3cc(OC)cc(OC)c3)c(NC(=O)NC(C)(C)C)nc2n1 [PD173074] (first compound 0.2 µM, partner dose 0.1 µM) | 109 |
